The results in this text go back to patent US7745570B2, “PH dependent adhesive peptides” (Kansas State University Research Foundation, priority 2005, dated 2010).

Data set [1] is described as follows: Dry shear (adhesive) strength of hot-pressed glued wood specimens, ASTM D2339-98. The data set is classed as physicochemical. The settings on record: for Dry shear strength: pH 12, 4% peptide, hot press 170° C.
The nature of data set [2]: Water resistance: wet shear strength after soaking glued wood in water for 48 h. The data set is classed as physicochemical. The conditions noted are these: pH 12; for Wet shear strength: after immersion in water for 48 hr, 170° C. pressed.
[3] abbreviates: pH 12.0, 4% w/w peptide, hot press 130° C., 5 min.

Where no end group is shown, it is not given here.

For “EEEFLIVIGSIIEEE-OH [Peptide E3h9E3, EEE-FLIVIGSII-EEE]”, in data set [1] (setting [3]), the “Shear strength (adhesive strength), dry” value is given as 1.09±0.21 MPa.
In the case of “KKK-FLIVIGSII-KKK (KKKFLIVIGSIIKKK) [Peptide K3h9K3]”, the “Shear strength (adhesive strength), dry” value in data set [1] (pH 2.2, 4% w/w peptide, hot press 130° C.) is reported as “modest adhesive strength”; in data set [1] (pH 6.8, 4% w/w peptide, hot press 130° C.), “minimal strength”; in data set [1] (setting [3]) it was 3.05 MPa; in data set [1] (pH 12.0, 4% w/w peptide, hot press 130° C., 5 min, listed as K3h K3), “approximately 3.05±0.35 MPa”. The Dry shear strength in data set [1] is 3.74±0.38 MPa; in data set [1] (listed as K3h9K), “approximately 3.7 MPa”. Also, the “Adhesive strength in D2O” value in data set [1] (pH 12 in D2O, hot press 130° C.) worked out at 2.7±0.33 MPa. The same substance displayed a Wet shear strength in data set [2] of 1.38±0.2 MPa.
For the substance “KKK-FLIVIGSII-EEE (KKKFLIVIGSIIEEE) [Peptide K3h9E3]”, the “Adhesive strength at all three pH values” in data set [1] (pH 2.2, 6.8 and 12.0, hot press 130° C.) was “only weakly adhesive at all pH values”. For the same substance, the “Behaviour during the immersion step (wet strength)” value in data set [2] (prepared at either temperature (130 or 170° C.), water 48 hr) is “fall apart during the immersion step”.
On to “EEE-FLIVIGSII-KKK (EEEFLIVIGSIIKKK) [Peptide E3h9K3]”, for which the Dry shear strength in data set [1] is recorded as 2.39±0.24 MPa. In addition, in data set [1] (setting [3]), the “Shear strength (adhesive strength), dry” value is 1.81±0.18 MPa. For the same substance, the “Wet strength as percent of the dry 170° C. pressed shear strength” value in data set [2] (48 hr immersion) is listed as 15%. For the same substance, in data set [2], the Wet shear strength is on record as 0.37±0.12 MPa.
As to “XXX-FLIVIGSII-XXX [Peptide X3h9X3, X = 2,3-diaminopropionic acid]”, in data set [1] (setting [3]), the “Shear strength (adhesive strength), dry” value was found to be 3.0±0.29 MPa.
On to “KKK-FLIVIGSII-KKK-FLIVIGSII-KKK (KKKFLIVIGSIIKKKFLIVIGSIIKKK) [(K3h9)2K3]”, for which, in data set [1], the Dry shear strength is recorded as 3.91±0.33 MPa. The “Shear strength (adhesive strength), dry” value in data set [1] (setting [3]) is on record as 2.83±0.33 MPa. Besides, in data set [2], the Wet shear strength is given as 1.43±0.06 MPa.
For “KKK-FLIVIGSII-KKK-FLIVIGSII-KKK-FLIVIGSII-KKK (KKKFLIVIGSIIKKKFLIVIGSIIKKKFLIVIGSIIKKK) [(K3h9)3K3]”, in that order: 4.15±0.3 MPa, 2.78±0.30 MPa and 1.38±0.15 MPa.
